Several values for one entry are separate records, joined by “and”; a condition that tells them apart may be missing. Equal entries are not always repeated. Structures can show the parent of a compound that is named as a salt. The name of at least one read-out is uncertain.
System: Aconitinarrhythmie der Ratte
Assay: Antiarrhythmic activity, aconitine-induced arrhythmia in the anaesthetised rat (oral dosing, aconitine i.v. infusion 60 min later)
Type: in vivo, Ratten (Stamm: Sprague Dawley)
Details: per os, relative potency from ED 50 %
Description: Zur Bestimmung der antiarrhythmischen Wirksamkeit werden die Substanzen Ratten (Stamm: Sprague Dawley, Gewicht 200 bis 250 g) oral appliziert. 45 min später werden die Tiere mit Thiobutabarbital-Natrium (100,0 mg/kg i.p.) narkotisiert. Als arrhythmogene Substanz dient Aconitin, das 60 min nach Substanzapplikation i.v. infundiert wird (Dosierungsgeschwindigkeit: 0,005 mg/kg x min). Bei nicht behandelten Tieren (N = 52) treten nach 2,74 + 0,07 min im EKG Arrhythmien auf, deren Eintritt durch Antiarrhythmika dosisabhängig verzögert werden kann.
Aus den linearen Beziehungen zwischen log Dosis (mg/kg) der Prüfsubstanzen und der relativen Verlängerung der Aconitin--Infusionsdauer (Δ%) wird die Dosis bestimmt, welche die Infusionsdauer um 50 % verlängert (ED 50 %).
Zur weiteren Charakterisierung der Substanzen wird aus der in den Experimenten verwendeten dezimalgeometrischen Dosenfolge (Faktor [formula] ) die antiarrhythmische Wirkung der maximal tolerierten Dosis bestimmt.

Row | SMILES | R.W. = Relative Wirksamkeit, bezogen auf Chinidin = 1,00
1 | CC(C)NCC(CCCN(C)CCc1ccccc1)(c1ccccc1)C(C)C (stereo not drawn) [Beispiel 11, 1-Isopropylamino-2-isopropyl-2-phenyl-5-(phenethyl)-methylamino-pentan-dihydrochlorid] | 6,78
2 | CCCCNCC(CCCN(C)CCc1ccc(OC)c(OC)c1)(c1cc(OC)c(OC)c(OC)c1)C(C)C (stereo not drawn) [Beispiel 23] | 1,3 and 1,29
3 | CNCC(CCCN(C)CCc1ccc(OC)c(OC)c1)(c1ccc(OC)c(OC)c1)C(C)C (stereo not drawn) [Beispiel 32, 1-Methylamino-2-isopropyl-2-(3,4-dimethoxyphenyl)-5--[(3,4-dimethoxyphenethyl)methylamino]-pentan-dihydrochlorid] | 1,3 and 1,29

Source: patent EP0082266A1, “Substituted 1,5-diaminopentanes, their preparation and pharmaceutical compositions containing them” (BASF Aktiengesellschaft, priority 1981, dated 1983)
